Data on three substances can be found in PMC3359978.

No constants are given. Whether binding was seen depends on the method and setting. Binding calls can cover weak binding; strength is not graded here. Tags and fused reporters may be left off the sequences shown. For some assays here: Binding seen in cells or lysates may run through a third protein.

Assay [1] addresses T1, RIC-19, RAB-2 effector (yeast two-hybrid fusion) (C. elegans) (UniProt P91124).
T1 sequence: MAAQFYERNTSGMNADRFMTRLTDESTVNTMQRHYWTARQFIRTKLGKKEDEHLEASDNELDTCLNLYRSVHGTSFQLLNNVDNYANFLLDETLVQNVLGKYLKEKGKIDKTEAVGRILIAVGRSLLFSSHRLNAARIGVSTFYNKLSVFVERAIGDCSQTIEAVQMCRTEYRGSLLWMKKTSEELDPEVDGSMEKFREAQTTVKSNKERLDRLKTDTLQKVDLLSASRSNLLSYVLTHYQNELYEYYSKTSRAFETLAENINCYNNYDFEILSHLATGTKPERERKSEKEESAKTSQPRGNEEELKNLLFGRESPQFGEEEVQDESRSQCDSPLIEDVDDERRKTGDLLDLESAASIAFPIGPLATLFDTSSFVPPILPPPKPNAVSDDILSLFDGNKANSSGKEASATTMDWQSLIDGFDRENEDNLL
As to the kind of experiment: two-hybrid; Matchmaker (Clontech), yeast strain AH109; RIC-19 or ICA69 against TBC-8 full length or RUN domain (1-597 aa); growth on plates lacking histidine; empty pGADT7 for self-activation.

Assay [2] has as its target T2, ICA69, human ortholog of RIC-19 (yeast two-hybrid fusion) (human) (UniProt Q05084).
T2 sequence: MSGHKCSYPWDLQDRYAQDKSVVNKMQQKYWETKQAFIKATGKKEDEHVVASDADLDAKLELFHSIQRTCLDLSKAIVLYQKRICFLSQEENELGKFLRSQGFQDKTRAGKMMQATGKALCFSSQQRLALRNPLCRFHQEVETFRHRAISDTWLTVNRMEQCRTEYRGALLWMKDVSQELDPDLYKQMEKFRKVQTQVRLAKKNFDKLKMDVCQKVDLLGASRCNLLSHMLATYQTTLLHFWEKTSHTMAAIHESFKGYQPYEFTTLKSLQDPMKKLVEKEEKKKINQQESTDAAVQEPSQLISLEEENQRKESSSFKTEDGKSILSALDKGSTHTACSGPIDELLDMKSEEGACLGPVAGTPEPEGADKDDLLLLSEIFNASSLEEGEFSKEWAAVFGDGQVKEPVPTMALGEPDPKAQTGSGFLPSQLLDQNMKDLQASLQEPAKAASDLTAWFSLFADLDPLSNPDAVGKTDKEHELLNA
Described as above.

Assay [3] concerns the target T3, GFP-tagged RIC-19 (C. elegans) (UniProt P91124).
T3 sequence: T1 sequence
As to the kind of experiment: co-IP; HEK293 cells co-transfected with GFP-RIC-19 (or GFP) and V5-TBC-8; lysis in 50 mM Tris pH 7.5, 150 mM NaCl, 1% Triton X 100; anti-GFP antibody (clone 3E6) and Protein G Plus-sepharose at 4°C; washes with 500 mM NaCl; blots with anti-GFP and anti-V5.

Turning to “TBC-8 RUN domain (1–597 aa) (Gal4 activation domain fusion) (C. elegans) (domain or fragment)”, the binding entry in assay [1] and in assay [2] was “binds” throughout.

For the substance “TBC-8 wild type, full length (Gal4 activation domain fusion) (C. elegans)”, the binding entry in assay [1] and in assay [2] was “binds” throughout. Take “V5-TBC-8 RUN domain (1–597 aa) (C. elegans) (domain or fragment)”: in assay [3], the binding result is on record as “binds”.
